According to PubChem BioAssay AID602313 (National Center for Advancing Translational Sciences (NCATS), 2012):
Out of some 390,000 compounds screened, about 760 (0.19%) were called active. Inconclusive results, whose numbers are uncertain, are shown with a selection of clear calls. The call rests on the fitted dose curve; in most records, active means well fitted inhibition curve with a large enough effect; inconclusive means small, poorly fitted or top-dose-only effect; inactive means flat fitted curve, though single readings scatter. Where the call is inconclusive, the potency comes from a doubtful curve fit.

experiment: qHTS for Inhibitors of Vif-A3F Interactions: qHTS; conditions: HeLa A3F-eYFP + Vif (tagged APOBEC3F with the HIV-1 protein that degrades it), YFP fluorescence increase; series mostly up to 46.1 µM; activity, negative = active: at the top concentration; further: nearly all actives have a fitted effect of over 65% in size; on activity, negative = active: % of control where 0% means no effect
Procedure, shortened: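 Fluorescence increase (Ex 488/Em 500-530) after overnight compound treatment at 37 deg C flags inhibition of Vif-driven A3F-eYFP loss in stable HeLa A3F-eYFP/Vif cells seeded overnight beforehand.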
Potency means the concentration at half of the fitted maximal effect.

Compound	Potency	activity, negative = active
N#C/C(=C\c1ccc(OCc2ccccc2)cc1)C(=O)Nc1nc2c(s1)CCN(Cc1ccccc1)C2	inconclusive: 35.5 µM [inhibitor, single point]	–
CSc1nnc(N2C(=O)C(O)=C(C(=O)c3ccco3)C2c2cccc(Cl)c2)s1 (centres undefined)	inconclusive: 2.82 µM [inhibitor, single point]	–
Cc1cccc(N=Nc2c(O)[nH]c3ccc(Br)cc23)c1	inconclusive: 35.5 µM [inhibitor, single point]	–
CCOC(=O)c1ccc(-c2ccc(/C=C(\C#N)C(=O)Nc3c(C)cccc3Cl)o2)cc1	inconclusive: 5.62 µM [inhibitor, full curve, poor fit]	–
CNC(=S)NNC(=O)c1cc(C(C)(C)C)nn1Cc1ccc(F)cc1	inconclusive: 35.5 µM [inhibitor, single point]	–
CCn1c(/C=C/c2ccc([N+](=O)[O-])o2)nc2ccccc2c1=O	active: 22.4 µM	–
COc1ccccc1NC(=S)NCCSc1ccc(C)cc1	inconclusive: 22.4 µM [inhibitor, single point]	–
O=[N+]([O-])c1ccc(N=Nc2ccc(O)c3ccccc23)cc1	inconclusive: 10 µM [inhibitor, partial curve, poor fit]	–
Cc1ccc(-n2c(=O)c3c(c4cc(C)ccc4n3C)n(CC(=O)NCCC3=CCCCC3)c2=O)cc1	–	inactive: -6.63%
O=C(CSc1n[nH]c(-c2ccccn2)n1)Nc1ccccc1F	inconclusive: 15.8 µM [inhibitor, partial curve, poor fit]	–
C=CCn1c(NC(=O)c2ccccc2Cl)c(C#N)c2nc3ccccc3nc21	inconclusive: 31.6 µM [inhibitor, single point]	–
O=C(NCCc1c[nH]c2ccccc12)c1ccc2c(c1)OCO2	inconclusive: 4.47 µM [inhibitor, full curve, poor fit]	–
CCOC(=O)c1c(NC(=O)CSc2nc3ccccc3[nH]2)sc2c1CC(C)(C)NC2(C)C	inconclusive: 7.08 µM [inhibitor, partial curve, poor fit]	–
O=C(CSc1ccccn1)C12CC3CC(CC(C3)C1)C2	inconclusive: 1.26 µM [inhibitor, partial curve, poor fit]	–
Cn1c(CCC(=O)O)nc2cc(S(=O)(=O)N3CCCC3)ccc21	–	inactive: -5.61%
COc1ccc(C=CC(=O)c2ccc([N+](=O)[O-])cc2)cc1	inconclusive: 22.4 µM [inhibitor, single point]	–
CCOC(=O)N1CCN(C(=O)CNC(=O)c2nn(-c3ccc(OC)cc3OC)c(=O)c3ccccc23)CC1	inconclusive: 3.98 µM [inhibitor, single point]	–
O=C(NCCNC(=O)c1ccccc1[N+](=O)[O-])c1ccccc1[N+](=O)[O-]	inconclusive: 35.5 µM [inhibitor, single point]	–
COCCOC(=O)C1=C(C)NC(SCC(=O)NC(C)(C)C)=C(C#N)C1c1ccco1 (centres undefined)	–	inactive: 7.63%
COc1ccc2ccccc2c1CN1CCCC(CO)C1 (centres undefined)	–	inactive: -4.08%
O=C(CSc1c2c(nc3ccc(Cl)cc13)CCCC2)N1CCN(C(=O)c2ccco2)CC1	–	inactive: -9.51%
COc1ccc(C2=CC(c3ccc(N(C)C)cc3)n3nnnc3N2)cc1 (centres undefined)	active: 11.2 µM	–

Compound	Potency	activity, negative = active
COc1ccc(NC(=O)Cn2cnc3c(nc4n3CCCCC4)c2=O)c(OC)c1	–	inactive: -4.96%
O=c1[nH]c(-c2ccccc2)cs1	–	inactive: 6.26%
COc1ccc(CNC(=S)N/N=C/c2ccc(O)c(OC)c2)cc1	inconclusive: 11.2 µM [inhibitor, partial curve, poor fit]	–
Cc1cc(C)nc(N/N=C/C2=C(N3CCOCC3)C(=C\c3ccc(Cl)cc3)/CC2)n1	inconclusive: 11.2 µM [inhibitor, partial curve, poor fit]	–
Cc1ccc(C)c(/C=C2\N=C(c3ccccc3F)OC2=O)c1	inconclusive: 35.5 µM [inhibitor, single point]	–
CCOC(=O)/C(C#N)=C/c1cn(CCC(=O)O)nc1-c1ccc(Br)cc1	inconclusive: 35.5 µM [inhibitor, single point]	–
Cc1cc(C)nc(NNC2=CC(=[N+]3CCCCC3)CC(C)(C)C2)n1	inconclusive: 35.5 µM [inhibitor, single point]	–
Cc1ccc(S(=O)(=O)N2CCCN(c3nc4cc(C)ccc4cc3C#N)CC2)cc1	inconclusive: 35.5 µM [inhibitor, single point]	–
NS(=O)(=O)c1ccc(N=Nc2ccc(O)c3ncccc23)cc1	inconclusive: 25.1 µM [inhibitor, partial curve, poor fit]	–
CCOC(=O)c1c(-c2ccccc2)oc2ccc(NS(=O)(=O)c3ccccc3)cc12	inconclusive: 17.8 µM [inhibitor, single point]	–
Cc1ccc(CC(=O)N(Cc2ccccc2)c2ccccn2)cc1	inconclusive: 2.82 µM [inhibitor, single point]	–
CN(C)c1ccc(/C=C/C(=O)c2ccc(O)cc2)cc1	active: 7.94 µM	–
O=C(/C=C/c1ccccc1)NCCC1=CCCCC1	–	inactive: -10.3%
CCCCN1CCc2c([nH]c3c(C)cccc23)C1=O	–	inactive: -4.49%
O=S(=O)(c1ccc2oc(=S)[nH]c2c1)N1CCOCC1	–	inactive: -10.5%
COc1ccc(S(=O)(=O)c2cn(CC(=O)Nc3ccccc3)c3ccc(Cl)cc3c2=O)cc1	–	inactive: 4.52%
COc1ccc(-c2cnc(N)n2C)cc1	inconclusive: 35.5 µM [inhibitor, single point]	–
O=c1[nH]c2ccccc2n2c(=S)[nH]nc12	active: 22.4 µM	–
CCC(C)N(C(=O)COC(=O)CSc1ccc(C)c(C)c1)C1CCS(=O)(=O)C1 (centres undefined)	–	inactive: -15.2%
CCS(=O)(=O)N1N=C(c2cccc(NS(C)(=O)=O)c2)CC1c1cccs1 (centres undefined)	inconclusive: 20 µM [inhibitor, partial curve, poor fit]	–
COc1cc(/C=C2\SC(=S)N(Nc3ncc(C(F)(F)F)cc3Cl)C2=O)ccc1O	active: 22.4 µM	–
O=C(Nc1ccc(S(=O)(=O)NCc2ccco2)cc1)c1ccc2ccccc2n1	inconclusive: 25.1 µM [inhibitor, single point]	–

Entries above containing a COOH group (2):
Compound	Potency	activity, negative = active
Cn1c(CCC(=O)O)nc2cc(S(=O)(=O)N3CCCC3)ccc21	–	inactive: -5.61%
CCOC(=O)/C(C#N)=C/c1cn(CCC(=O)O)nc1-c1ccc(Br)cc1	inconclusive: 35.5 µM [inhibitor, single point]	–
